Protein sequences, listed by entry. Tags and fused reporters are not part of them. Lines headed by an entry give the natural chain unless they say otherwise; changes in a name come on top.
UniProt P40075: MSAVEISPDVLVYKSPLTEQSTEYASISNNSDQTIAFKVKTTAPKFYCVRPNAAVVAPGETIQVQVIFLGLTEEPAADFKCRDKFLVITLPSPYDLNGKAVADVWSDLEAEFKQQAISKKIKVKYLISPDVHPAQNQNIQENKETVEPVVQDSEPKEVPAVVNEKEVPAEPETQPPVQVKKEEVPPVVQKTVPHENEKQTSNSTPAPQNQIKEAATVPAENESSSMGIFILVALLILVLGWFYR

According to paper PMC519002:

Target: T1, myc-tagged Opi1 (S. cerevisiae (endogenous locus, strains derived from CRY1)) (UniProt P21957)
T1 sequence: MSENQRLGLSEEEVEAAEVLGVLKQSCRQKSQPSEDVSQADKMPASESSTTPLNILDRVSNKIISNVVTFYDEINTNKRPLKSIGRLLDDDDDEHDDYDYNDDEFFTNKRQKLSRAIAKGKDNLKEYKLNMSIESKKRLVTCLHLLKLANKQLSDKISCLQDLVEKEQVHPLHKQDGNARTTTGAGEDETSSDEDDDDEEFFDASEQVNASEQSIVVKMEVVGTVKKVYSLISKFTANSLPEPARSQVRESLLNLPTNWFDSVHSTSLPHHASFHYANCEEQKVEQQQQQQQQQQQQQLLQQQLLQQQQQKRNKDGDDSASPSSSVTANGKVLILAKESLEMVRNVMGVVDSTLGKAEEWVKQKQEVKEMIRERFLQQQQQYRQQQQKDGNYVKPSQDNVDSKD
Test: co-IP; microsomal fraction solubilized with 3% Triton X-100 in IP buffer; anti-myc agarose 4 h at 4 °C, five washes; total, supernatant and bound fractions blotted with anti-myc or anti-HA; strain with Scs2-HA alone as control

For “hemagglutinin (HA)-tagged Scs2 (from UniProt P40075)”, the binding was “binds”.

These are yes or no findings as the source states them, for the method shown. Binding seen in cells or lysates may run through a third protein. A result given as binding can be weak or reduced; the word gives no strength. Tags and fused reporters may be left off the sequences shown.
